# These are yes or no findings as the source states them, for the method shown. For part of these data: Binding seen in cells or lysates may run through a third protein. Some entries that bind do so weakly or less than the wild type.
# Amino acid sequences for entries named in this document (tags omitted). A change or cut given only in a name is not applied to a line headed by its entry.
# UniProt Q9P2J5: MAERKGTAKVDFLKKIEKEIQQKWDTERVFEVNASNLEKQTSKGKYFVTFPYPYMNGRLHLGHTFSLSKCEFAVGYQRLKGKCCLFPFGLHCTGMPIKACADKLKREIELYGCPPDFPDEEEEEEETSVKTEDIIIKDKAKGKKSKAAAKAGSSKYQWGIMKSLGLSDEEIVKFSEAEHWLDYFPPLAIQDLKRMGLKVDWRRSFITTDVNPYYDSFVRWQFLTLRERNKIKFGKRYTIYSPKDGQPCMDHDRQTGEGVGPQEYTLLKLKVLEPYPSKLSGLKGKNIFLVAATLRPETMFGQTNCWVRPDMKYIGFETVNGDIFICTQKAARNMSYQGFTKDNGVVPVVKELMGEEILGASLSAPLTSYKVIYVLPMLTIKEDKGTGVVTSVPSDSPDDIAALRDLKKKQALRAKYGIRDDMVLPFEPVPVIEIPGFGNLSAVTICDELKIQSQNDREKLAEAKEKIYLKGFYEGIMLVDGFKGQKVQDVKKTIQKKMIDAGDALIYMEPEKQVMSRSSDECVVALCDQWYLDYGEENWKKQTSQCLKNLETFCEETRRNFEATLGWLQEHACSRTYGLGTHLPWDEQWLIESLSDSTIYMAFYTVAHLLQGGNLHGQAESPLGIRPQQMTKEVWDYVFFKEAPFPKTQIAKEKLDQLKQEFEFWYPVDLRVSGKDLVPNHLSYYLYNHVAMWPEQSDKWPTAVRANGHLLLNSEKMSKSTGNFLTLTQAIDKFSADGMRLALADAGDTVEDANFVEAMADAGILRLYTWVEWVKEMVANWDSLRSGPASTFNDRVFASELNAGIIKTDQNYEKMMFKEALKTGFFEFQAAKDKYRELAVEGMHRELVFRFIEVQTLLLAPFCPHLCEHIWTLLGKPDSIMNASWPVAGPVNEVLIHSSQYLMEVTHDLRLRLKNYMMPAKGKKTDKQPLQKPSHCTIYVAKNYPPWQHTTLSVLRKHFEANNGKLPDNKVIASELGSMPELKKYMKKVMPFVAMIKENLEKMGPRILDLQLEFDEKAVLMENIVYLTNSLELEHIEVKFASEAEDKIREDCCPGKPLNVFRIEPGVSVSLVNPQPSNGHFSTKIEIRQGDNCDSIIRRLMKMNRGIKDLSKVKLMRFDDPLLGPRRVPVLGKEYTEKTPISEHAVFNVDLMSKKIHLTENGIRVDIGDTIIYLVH
# UniProt Q9NQL2: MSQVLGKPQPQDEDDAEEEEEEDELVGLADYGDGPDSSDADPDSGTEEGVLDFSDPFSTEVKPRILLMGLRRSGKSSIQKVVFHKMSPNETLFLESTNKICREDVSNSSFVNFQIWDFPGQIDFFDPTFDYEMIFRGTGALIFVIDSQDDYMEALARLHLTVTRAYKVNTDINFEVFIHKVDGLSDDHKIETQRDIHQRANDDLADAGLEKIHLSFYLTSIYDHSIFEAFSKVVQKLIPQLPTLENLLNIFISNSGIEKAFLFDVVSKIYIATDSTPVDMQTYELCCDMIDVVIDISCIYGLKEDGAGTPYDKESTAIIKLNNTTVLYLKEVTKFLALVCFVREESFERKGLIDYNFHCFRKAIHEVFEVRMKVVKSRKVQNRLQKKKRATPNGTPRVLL
# UniProt Q7L523: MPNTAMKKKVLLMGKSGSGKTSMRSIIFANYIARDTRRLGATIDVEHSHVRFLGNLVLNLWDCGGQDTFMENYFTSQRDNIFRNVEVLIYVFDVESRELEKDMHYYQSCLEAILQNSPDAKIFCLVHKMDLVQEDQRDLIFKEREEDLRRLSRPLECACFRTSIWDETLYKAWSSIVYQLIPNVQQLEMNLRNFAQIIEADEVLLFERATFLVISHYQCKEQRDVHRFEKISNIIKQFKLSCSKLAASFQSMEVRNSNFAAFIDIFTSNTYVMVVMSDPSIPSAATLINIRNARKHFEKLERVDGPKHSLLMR
# UniProt Q8N122: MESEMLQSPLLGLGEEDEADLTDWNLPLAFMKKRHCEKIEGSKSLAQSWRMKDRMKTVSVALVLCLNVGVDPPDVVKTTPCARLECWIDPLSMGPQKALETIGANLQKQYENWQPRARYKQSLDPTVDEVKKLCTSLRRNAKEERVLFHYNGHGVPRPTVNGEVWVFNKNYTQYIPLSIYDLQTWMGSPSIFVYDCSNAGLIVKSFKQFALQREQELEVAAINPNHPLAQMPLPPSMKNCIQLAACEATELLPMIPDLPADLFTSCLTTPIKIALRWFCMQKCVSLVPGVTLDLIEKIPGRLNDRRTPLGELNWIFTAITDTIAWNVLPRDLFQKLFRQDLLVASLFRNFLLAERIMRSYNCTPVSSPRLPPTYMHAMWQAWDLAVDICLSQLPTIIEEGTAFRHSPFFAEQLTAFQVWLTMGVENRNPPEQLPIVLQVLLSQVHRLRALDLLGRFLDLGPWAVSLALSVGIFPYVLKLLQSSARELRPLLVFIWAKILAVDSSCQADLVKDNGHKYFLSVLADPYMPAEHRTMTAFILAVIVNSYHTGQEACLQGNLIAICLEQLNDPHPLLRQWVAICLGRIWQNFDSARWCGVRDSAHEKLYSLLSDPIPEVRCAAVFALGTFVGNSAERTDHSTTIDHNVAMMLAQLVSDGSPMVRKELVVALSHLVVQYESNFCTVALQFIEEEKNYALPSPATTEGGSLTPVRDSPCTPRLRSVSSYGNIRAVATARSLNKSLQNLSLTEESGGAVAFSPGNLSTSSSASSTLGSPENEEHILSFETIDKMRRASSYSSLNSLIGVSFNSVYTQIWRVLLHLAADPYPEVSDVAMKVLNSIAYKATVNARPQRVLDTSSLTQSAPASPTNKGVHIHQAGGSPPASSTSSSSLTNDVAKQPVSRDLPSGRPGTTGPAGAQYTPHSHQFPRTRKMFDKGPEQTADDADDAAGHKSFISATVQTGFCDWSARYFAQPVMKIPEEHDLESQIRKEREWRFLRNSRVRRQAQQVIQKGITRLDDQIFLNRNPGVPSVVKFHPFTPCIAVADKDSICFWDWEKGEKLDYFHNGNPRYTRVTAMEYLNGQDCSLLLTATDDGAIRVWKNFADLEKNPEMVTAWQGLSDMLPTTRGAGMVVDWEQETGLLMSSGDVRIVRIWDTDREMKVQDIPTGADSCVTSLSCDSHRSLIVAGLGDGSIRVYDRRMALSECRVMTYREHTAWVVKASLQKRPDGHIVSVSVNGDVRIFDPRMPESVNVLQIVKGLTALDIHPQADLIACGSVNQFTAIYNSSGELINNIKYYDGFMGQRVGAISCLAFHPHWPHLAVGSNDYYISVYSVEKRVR
# What was measured:
# [1] = target: myc-tagged LRS (wild type) (Homo sapiens (Human)) (UniProt Q9P2J5); assay: in vitro pull-down of myc-tagged LRS with GST-RagD fragments (FIG. 3f)
# [2] = target: FLAG-tagged LRS (Homo sapiens (Human)) (UniProt Q9P2J5); assay: recap of the co-immunoprecipitations of FIGS. 6e-6g
# [3] = target: FLAG-tagged LRS (Homo sapiens (Human)) (UniProt Q9P2J5); assay: co-immunoprecipitation of FLAG-LRS with myc-RagD from 293T cells (FIG. 6e)
# [4] = target: FLAG-tagged LRS (Homo sapiens (Human)) (UniProt Q9P2J5); assay: co-immunoprecipitation with anti-myc antibody from 293T cells co-expressing Rag heterodimers (FIGS. 6f and 6g)
# [5] = target: GST-LRS (purified GST-fused leucyl-tRNA synthetase) (Homo sapiens (Human)) (UniProt Q9P2J5); assay: in vitro GST-LRS pull-down of myc-RagD lysates, anti-myc blot (FIG. 6d)
# HA-tagged RagD [6] = target: HA-tagged RagD (UniProt Q9NQL2); assay: in vitro GST pull-down of HA-RagD lysate, anti-HA blot (FIG. 3h; also told as data not shown in the same paragraph)
# [7] = target: endogenous RagD of 293T cells (UniProt Q9NQL2); assay: in vitro GST pull-down from 293T lysates with leucine, ATP, tRNA^Leu, anti-RagD blot (FIG. 10a)
# HA-tagged RagD [8] = target: HA-tagged RagD (UniProt Q9NQL2); assay: in vitro GST pull-down of HA-RagD lysate in the presence of GDPβS or GTPγS, anti-HA blot (FIG. 6c)
# HA-tagged RagD [9] = target: HA-tagged RagD (UniProt Q9NQL2); assay: in vitro GST pull-down from transfected 293T extracts, anti-HA blot (FIG. 3a)
# [10] = target: RagB/RagD heterodimer (HA-RagD/myc-RagB) (UniProt Q9NQL2); assay: co-immunoprecipitation with anti-HA antibody, anti-myc blot (FIG. 3i)
# [11] = target: RagB/RagD heterodimer (myc-RagD/HA-RagB) (UniProt Q9NQL2); assay: co-immunoprecipitation with anti-myc antibody from 293T cells (FIG. 6g)
# RagA/RagD heterodimer [12] = target: RagA/RagD heterodimer (UniProt Q7L523); assay: co-immunoprecipitation with anti-myc antibody from 293T cells, anti-FLAG blot (FIG. 4b)
# RagA/RagD heterodimer [13] = target: RagA/RagD heterodimer (UniProt Q7L523); assay: co-immunoprecipitation with anti-myc antibody from 293T cells (FIG. 6f)
# RagA/RagD heterodimer [14] = target: RagA/RagD heterodimer (UniProt Q7L523); assay: co-immunoprecipitation with anti-myc antibody from 293T cells (FIG. 3d)
# [15] = target: RagB/RagD heterodimer (myc-RagD/HA-RagB) (UniProt Q9NQL2); assay: as above
# [16] = target: RagB/RagD heterodimer (myc-RagD/HA-RagB) (UniProt Q9NQL2); assay: anti-myc immunoprecipitation from 293T cells expressing myc-RagD/HA-RagB, anti-LRS blot (FIG. 3e)
# HA-tagged RagD [17] = target: HA-tagged RagD (UniProt Q9NQL2); assay: co-immunoprecipitation with anti-HA antibody, anti-myc blot (FIG. 10d)
# HA-tagged RagD [18] = target: HA-tagged RagD (UniProt Q9NQL2); assay: co-immunoprecipitation with anti-HA antibody from 293T cells, anti-myc blot (FIG. 3b)
# [19] = target: endogenous Raptor of 293T cells (UniProt Q8N122); assay: immunoprecipitation with anti-Raptor antibody from 293T cells with control or LRS siRNA, anti-RagD blot (FIG. 4d)
# [20] = target: endogenous RagD of 293T cells (UniProt Q9NQL2); assay: immunoprecipitation of 293T lysates with anti-Raptor antibody, anti-RagD blot (FIG. 4a)
# HA-tagged RagD [21] = target: HA-tagged RagD (UniProt Q9NQL2); assay: in vitro GST pull-down of HA-RagD lysate, anti-HA blot (FIG. 3h)
# [22] = target: myc-tagged LRS (wild type) (Homo sapiens (Human)) (UniProt Q9P2J5); assay: co-immunoprecipitation with anti-HA antibody, anti-myc blot (FIG. 3c)
substance,measurement,setting,value
GST-RagD (RagD-(1-400)) (from UniProt Q9NQL2 1-400) (enzyme),binding,[1],binds
myc-tagged RagD Q121L (GTP-bound form) (from UniProt Q9NQL2 1-400) (enzyme),binding,[2],binds
same,binding,[3],binds
same,binding,[4],binds
same,binding,[5],binds
GST-LRS fragment 951-1176 (from UniProt Q9P2J5 951-1176) (enzyme),binding,HA-tagged RagD [6],binds
myc-tagged RagD (wild type) (from UniProt Q9NQL2 1-400) (enzyme),binding,[3],binds
same,binding,[5],binds
GST-LRS (purified GST-fused leucyl-tRNA synthetase) (from UniProt Q9P2J5 1-1176) (enzyme),binding,[7],binds
same,binding,HA-tagged RagD [8],binds
same,binding,HA-tagged RagD [9],binds
myc-tagged LRS S953A/V954A (from UniProt Q9P2J5 1-1176) (enzyme),binding,[10],binds
FLAG-tagged LRS (from UniProt Q9P2J5 1-1176) (enzyme),binding,[11],binds
same,binding,RagA/RagD heterodimer [12],binds
same,binding,RagA/RagD heterodimer [13],binds
same,binding,RagA/RagD heterodimer [14],binds
same,binding,[15],binds
endogenous LRS of 293T cells (from UniProt Q9P2J5 1-1176) (enzyme),binding,[16],binds
myc-tagged LRS K716A/K719A (from UniProt Q9P2J5 1-1176) (enzyme),binding,HA-tagged RagD [17],binds
myc-tagged LRS (wild type) (from UniProt Q9P2J5 1-1176) (enzyme),binding,HA-tagged RagD [18],binds
endogenous RagD of 293T cells (from UniProt Q9NQL2 1-400) (enzyme),binding,[19],binds
endogenous Raptor of 293T cells (from UniProt Q8N122 1-1335),binding,[20],binds
GST-LRS fragment 759-1120 (from UniProt Q9P2J5 759-1120) (enzyme),binding,HA-tagged RagD [21],binds
myc-tagged LRS R956A/K957A (from UniProt Q9P2J5 1-1176) (enzyme),binding,[10],binds
GST-LRS fragment 759-1176 (from UniProt Q9P2J5 759-1176) (enzyme),binding,HA-tagged RagD [21],binds
HA-tagged RagD (from UniProt Q9NQL2 1-400) (enzyme),binding,[22],binds
GST-RagD fragment 230-400 (from UniProt Q9NQL2 230-400) (enzyme),binding,[1],binds
